Source: the supplement of paper PMC8256030
Several values for one entry are separate records, joined by “and”; a condition that tells them apart may be missing. Identical values can stand only once. Counter-ions that a name gives are not always drawn. This is one part of the list. This data set is noisy: repeats of one test often differ as much as different tests do.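 HEK293T cells were given each compound shortly before transfection with a reporter in which red mCherry is followed by the SARS-CoV-2 frameshift element and then GFP in the −1 frame, so GFP appears only after frameshifting.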

Experiments:
HEK293T = experiment: percent viability (nuclei count) relative to control; higher = more viable cells; settings: 10 µM; 24 h
[1] = tested on: SARS-CoV-2 -1 PRF reporter mCherry-FSE-GFP(-1); experiment: mCherry (red) intensity as percent of control; higher = higher upstream reporter expression; settings: 10 µM; 24 h; HEK293T
[2] = tested on: SARS-CoV-2 -1 PRF reporter mCherry-FSE-GFP(-1); experiment: percent effect, decrease of GFP/mCherry ratio (-1 PRF reporter) relative to controls; higher = stronger frameshift inhibition; settings: 10 µM; 24 h; HEK293T

Compound	percent viability (HEK293T)	mCherry [1]	percent effect [2]
COc1cc2c(cc1OC)[C@@]13CCN4CC5=CCO[C@H]6CC(=O)N2[C@H]1[C@H]6[C@H]5C[C@H]43	216%	100%	-7.32%
CC(Cc1ccccc1)NCCC#N (centres undefined) [fenproporex]	66.8%	112%	5.76%
CCN(CC)C(=O)N[C@H]1C=C2c3cccc4[nH]cc(c34)C[C@H]2N(C)C1 [lisuride]	280%	114%	-7.93%
Cc1cc(C(C#N)c2ccc(Cl)cc2)c(Cl)cc1NC(=O)c1cc(I)cc(I)c1O (centres undefined) [closantel]	227%	124%	-1.05%
CN(C)[C@@H]1C(=O)C(C(N)=O)=C(O)[C@@]2(O)C(=O)C3=C(O)c4c(O)cccc4[C@@](C)(O)[C@H]3[C@H](O)[C@@H]12 [oxytetracycline]	106%	90.1%	-0.608%
CCn1cc(C(=O)O)c(=O)c2cc3c(cc21)OCO3 [oxolinic acid]	335%	131%	1.09%
CC(C)C[C@H]1C(=O)N2CCC[C@H]2[C@]2(O)O[C@](NC(=O)[C@@H]3C=C4c5cccc6[nH]c(Br)c(c56)C[C@H]4N(C)C3)(C(C)C)C(=O)N12	276%	93.4%	-2.46%
O=c1c2ccccc2[se]n1-c1ccccc1 [ebselen]	235%	77.2%	-6.71%
Nc1ncnc2c1ncn2CCOCP(=O)(O)O [adefovir]	177%	80%	-1.11%
CCC1(c2ccccc2)C(=O)NC(=O)N(C)C1=O (centres undefined) [methylphenobarbital]	190%	89.4%	-4.29%
Cc1ccc2c(c1)C1CN(C)CCC1N2 (centres undefined) [dicarbine]	261%	128%	1.02%
CNC(C)CC1CCCCC1 (centres undefined) [propylhexedrine]	274%	94.5%	-0.629%
O=c1cccc2n1C[C@@H]1CNC[C@H]2C1 [Cytisine]	234%	92.2%	-0.000937%
CC[C@H]1[C@@H]2C[C@H]3[C@@H]4N(C)c5ccccc5[C@]45C[C@@H]([C@@H]2[C@H]5O)N3[C@@H]1O [Ajmaline]	263%	76.5%	-5.37%
CCCC(C)(COC(N)=O)COC(N)=O [meprobamate]	275%	119%	1.73%
CCN(CC)Cc1nccn1-c1ccc([N+](=O)[O-])cc1C(=O)c1ccccc1Cl [nizofenone]	180%	96.7%	-1.89%
C[C@H]1[C@H](c2ccccc2)OCCN1C [Bontril]	36.7%	70.5%	-9.63%

Compound	percent viability (HEK293T)	mCherry [1]	percent effect [2]
C#Cc1cncc([C@@H]2CCCN2C)c1 [altinicline]	304%	61.2%	1.38%
O=C1CC[C@@]2(O)[C@H]3Cc4ccc(O)c5c4[C@@]2(CCN3CC2CC2)[C@H]1O5 [Naltrexone·HCl]	175%	113%	3.82%
Oc1ccc(Cl)cc1Cc1cc(Cl)ccc1O [dichlorophen]	347%	92.6%	-4.01%
CN(C)C(=O)OC1N=C(c2ccccc2)c2cc(Cl)ccc2N(C)C1=O (centres undefined) [camazepam]	170%	115%	4.19%
COP(=S)(OC)Oc1cc(Cl)c(Br)cc1Cl [bromofos]	154%	100%	-1.75%
CCOP(=O)(OCC)ON1C(=O)c2cccc3cccc(c23)C1=O [naftalofos]	191%	75.2%	-4.7%
C[C@]12CCC(=NOCCN)C[C@@H]1C(=O)C[C@@H]1[C@@H]2CC[C@]2(C)C(=O)CC[C@@H]12 [istaroxime]	4.37%	10.5%	-9.71%
O=C(O)c1nn(Cc2ccc(Cl)cc2Cl)c2ccccc12 [lonidamine]	30.8%	99.6%	-2%
Cc1nnc2n1-c1ccc(Cl)cc1C(c1ccccc1Cl)=NC2 [triazolam]	332%	92.4%	-5.49%
C[C@]12CC[C@H]3[C@@H](CCC4=CC(=O)CC[C@@]43C)[C@@H]1CC[C@@H]2O [testosterone]	155% and 285%	92% and 98.9%	0.578% and -5.38%
C[N+]1(C)[C@@H]2C[C@@H](OC(=O)[C@H](CO)c3ccccc3)C[C@H]1[C@@H]1O[C@@H]12 [Pamine]	60.2%	112%	-1.87%
CCOC(=O)c1cncn1C(C)c1ccccc1 (centres undefined)	360%	118%	0.962%
CCC1(C2=NCCN2)Cc2ccccc2O1 (centres undefined)	324%	92.3%	0.0366%
CNc1ccc(C(=O)CC(O)CCC(C)C2OC(=O)CC(O)CC(=O)CC(O)CC(O)CC(O)CC(O)CC3(O)CC(O)C(C(=O)OC)C(CC(O[C@@H]4O[C@H](C)[C@@H](O)[C@H](N)[C@@H]4O)/C=C/C=C/C=C/C=C/C=C/C=C/C=C/C2C)O3)cc1.COC(=O)C1C(O)CC2(O)CC(O)CC(O)CC(O)CC(O)CC(=O)CC(O)CC(=O)OC(C(C)CCC(O)CC(=O)c3ccc(N)cc3)C(C)/C=C/C=C/C=C/C=C/C=C/C=C/C=C/C(O[C@@H]3O[C@H](C)[C@@H](O)[C@H](N)[C@@H]3O)CC1O2 (some centres undefined)	237%	78.3%	-1.83%
CN1CCN(C(=O)O[C@H]2c3nccnc3C(=O)N2c2ccc(Cl)cn2)CC1 [eszopiclone]	159%	86.9%	-5.21%
COc1cc(C2c3cc4c(cc3C(O)C(CO)C2C(=O)O)OCO4)cc(OC)c1OC.COc1cc(C2c3cc4c(cc3C(O)C(CO)C2C(=O)O)OCO4)cc(OC)c1OC.COc1cc(C2c3cc4c(cc3C(O)C3COC(=O)C23)OCO4)cc(OC)c1OC.COc1cc(C2c3cc4c(cc3C(O)C3COC(=O)C23)OCO4)cc(OC)c1OC (centres undefined) [Podophyllin]	19.4%	107%	-1.68%
